PubChem BioAssay AID1259424 – University of Nebraska Medical Center, 2018
In all, the deposit lists about 14,000 reagents; this is a part drawn at random. 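Higher correlation or smaller distance means closer resemblance to KSR1 loss; control wells, including KSR1 knockdowns, recur on many plates.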 Further read-outs or replicates are left out here. The record does not give: the time to read-out.

Purpose: 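Find knockdowns that reproduce the expression shifts seen after KSR1 loss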 (primary screen)
Cells: human HCT116 colon cancer cells
Knock-down reagent: siRNA pool against human genes, 50 nM
Read-out: 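Six signature mRNAs by branched-DNA multiplex assay, scaled to two housekeeping genes and non-targeting median, log2; matched to mean KSR1 knockdown profile by Pearson correlation and euclidean distance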
Reading the numbers: mean correlation with KSR1 profile and KSR1 correlation: higher = expression change more like KSR1 knockdown; mean distance from KSR1 profile: higher = expression change less like KSR1 knockdown

| gene | mean correlation with KSR1 profile | mean distance from KSR1 profile | KSR1 correlation, replicate 1 |
| --- | --- | --- | --- |
| TGFB3 | -0.487 | 2.8 | -0.244 |
| ATIC | -0.244 | 2.46 | -0.132 |
| B3GALT1 | 0.525 | 4.41 | 0.742 |
| NFIX | -0.494 | 3.08 | -0.351 |
| HJURP | -0.0114 | 1.84 | -0.0445 |
| ACSL1 | 0.131 | 2.49 | 0.0209 |
| ZNF124 | 0.701 | 0.853 | 0.665 |
| WDR25 | 0.446 | 2.35 | 0.448 |
| MAP1B | 0.163 | 1.52 | 0.056 |
| GAS2L1 | 0.0458 | 1.31 | 0.139 |
| MID1 | -0.442 | 1.91 | -0.383 |
| AFF4 | 0.258 | 1.42 | 0.0469 |
| COA1 | 0.285 | 1.45 | 0.464 |
| UPB1 | -0.00499 | 1.83 | 0.285 |
| IL32 | -0.502 | 2.5 | -0.47 |
| BLVRA | 0.646 | 1.23 | 0.059 |
| SH3BP2 | -0.195 | 2.8 | -0.139 |
| ZNF771 | 0.445 | 4.66 | 0.332 |
| TNFAIP2 | -0.566 | 2.59 | -0.752 |
| NGF | 0.346 | 1.59 | 0.372 |
| WARS1 | 0.215 | 2.08 | 0.137 |
| PPP1R13L | 0.376 | 1.34 | 0.581 |
| TMEFF1 | -0.503 | 1.56 | -0.384 |
| PLA2G15 | 0.472 | 2.18 | 0.46 |
| TDRD7 | -0.167 | 5.21 | -0.232 |
| GLUL | 0.104 | 1.68 | 0.147 |
| RNF141 | -0.479 | 2.4 | -0.563 |
| IRGC | -0.799 | 2.01 | -0.688 |
| SULT1A2 | -0.243 | 1.5 | -0.341 |
| MAPKAPK3 | 0.149 | 2.24 | 0.186 |
| SDC2 | -0.0173 | 2.18 | -0.223 |
| TBC1D10A | 0.566 | 2.27 | 0.463 |
| COIL | -0.242 | 2.08 | -0.245 |
| SGK2 | 0.0246 | 2.16 | 0.325 |
| EIF4E | -0.101 | 5.59 | 0.0392 |
| SCPEP1 | 0.0567 | 2.86 | 0.0349 |
| KCNK6 | -0.0447 | 2.52 | 0.125 |
| AIM2 | 0.258 | 1.52 | 0.554 |
| CFHR1 | -0.481 | 3.52 | -0.474 |
| MTMR10 | -0.849 | 2.6 | -0.791 |
| PACS2 | 0.0581 | 1.49 | -0.178 |
| PRMT7 | -0.354 | 2.01 | -0.528 |
| CFAP46 | -0.302 | 1.61 | -0.0704 |
| BCAR1 | -0.226 | 2.39 | -0.387 |
| GIGYF1 | -0.34 | 2.06 | -0.254 |
| TMX3 | -0.198 | 2.7 | -0.235 |
| ENOX1 | -0.312 | 1.36 | 0.0775 |
| MXRA5 | 0.301 | 1.53 | 0.444 |
| GADD45A | 0.107 | 1.58 | 0.227 |
| MR1 | 0.392 | 1.46 | -0.0219 |

Looked up above.
Entry of SGK2 under “KSR1 correlation, replicate 1”: 0.325
Under “mean distance from KSR1 profile”, ACSL1 shows 2.49
SDC2, KSR1 correlation, replicate 1: -0.223
TMX3, mean distance from KSR1 profile = 2.7
